PubChem BioAssay AID720505, Drosophila RNAi Screening Center | 2013

- Test: 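Knock-downs that reduce calcium influx once internal stores are emptied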 (primary screen)
- Cell system: Drosophila S2R+ cells
- Reagents: long dsRNA against Drosophila genes
- Conditions: thapsigargin (2 µM) in calcium-free buffer to empty internal stores, then 2 mM calcium added back
- Read-out: 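Fluo-4 signal in 384-well plates read on a FLIPR after thapsigargin (2 µM, calcium-free) store depletion and 2 mM calcium add-back; unnormalised mean endpoint per well; screen run twice, selected wells retested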
- Direction: calcium signal: higher = more calcium entry after store depletion
- Active means: 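Knock-downs counted as hits when calcium entry dropped relative to STIM1 positive and Rho1 negative controls present on each plate; roughly 1500 genes called, with reductions of differing size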
- Meaning of the calls: active = called as lowering calcium entry; inactive = not called
In all, the deposit lists about 20,000 reagents; shown is an unselected part of those with a known target gene and a result. In the full data, about 2,100 (10%) are marked active. 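Raw plate signals without normalisation; calls rest on control-based scores that were not deposited; replicate 2 separates called from uncalled poorly.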 A plus sign joins genes that one reagent is predicted to hit. The record does not give: the amount of reagent, the time to read-out.

| target | DRSC id | calcium signal, replicate 1 | calcium signal, replicate 2 | call |
| --- | --- | --- | --- | --- |
| TMEM216 + CG11760 | DRSC14375 | 113 | 124 | inactive |
| CG3065 | DRSC04333 | 161 | 103 | inactive |
| PH4alphaSG2 | DRSC15037 | 107 | 117 | inactive |
| mbm | DRSC00319 | 85.3 | 189 | inactive |
| ACXB | DRSC00845 | 91.5 | 133 | inactive |
| CG9837 | DRSC16573 | 129 | 174 | inactive |
| CG8945 | DRSC20129 | 108 | 97.1 | inactive |
| CG8945 | DRSC20130 | 116 | 133 | inactive |
| Vlet | DRSC19845 | 114 | 106 | inactive |
| CG31556 (retired record) | DRSC12122 | 9962 | 174 | active |
| CG31556 (retired record) | DRSC22177 | 112 | 225 | inactive |
| CG34159 | DRSC02885 | 156 | 139 | inactive |
| CG34159 | DRSC23222 | 71.7 | 99.7 | inactive |
| CG15255 | DRSC01869 | 113 | 95.1 | inactive |
| drpr | DRSC08143 | 83.1 | 60.5 | inactive |
| drpr | DRSC08525 | 66.4 | 118 | inactive |
| Nep1 | DRSC18388 | 155 | 138 | inactive |
| Nep1 | DRSC18389 | 226 | 99.1 | inactive |
| CG11912 | DRSC00332 | 114 | 173 | inactive |
| Hel25E | DRSC03342 | 116 | 146 | inactive |
| Nup98-96 | DRSC14209 | 182 | 170 | inactive |
| Nup98-96 | DRSC14210 | 101 | 152 | active |
| CG1998 | DRSC19829 | 93.1 | 97.2 | inactive |
| CG4116 | DRSC18348 | 84.2 | 144 | inactive |
| CG13884 | DRSC08354 | 136 | 107 | inactive |
| sordd2 + sordd1 | DRSC20136 | 118 | 130 | inactive |
| CG5510 | DRSC15823 | 201 | 142 | inactive |
| CG34235 + CG30058 + CG34312 | DRSC22142 | 64.2 | 175 | inactive |
| Fgop2 | DRSC02016 | 74.5 | 112 | inactive |
| ltl | DRSC10206 | 125 | 111 | inactive |
| ltl | DRSC10870 | 131 | 103 | inactive |
| Or85b | DRSC16765 | 105 | 125 | inactive |
| Gr58a | DRSC03910 | 120 | 6284 | inactive |
| CG8475 | DRSC03091 | 129 | 215 | inactive |
| CG31344 | DRSC16069 | 147 | 132 | inactive |
| eve | DRSC07614 | 82.7 | 114 | inactive |
| Prx3 | DRSC15883 | 226 | 185 | inactive |
| Lst8 | DRSC18262 | 176 | 143 | inactive |
| Pak3 | DRSC15017 | 120 | 227 | inactive |
| robl62A | DRSC08153 | 111 | 87 | inactive |
| CAH9 | DRSC15963 | 145 | 164 | inactive |
| CG42808 | DRSC06370 | 145 | 139 | inactive |
| Tbc1d8-9 | DRSC11820 | 116 | 81.7 | inactive |
| elav | DRSC18772 | 111 | 121 | inactive |
| ras | DRSC18825 | 113 | 116 | inactive |
| CG3961 | DRSC10390 | 46.9 | 99.5 | active |
| CG3961 | DRSC10391 | 108 | 134 | inactive |
| BEAF-32 | DRSC05927 | 135 | 106 | inactive |
| CG15651 | DRSC04242 | 222 | 91.6 | inactive |
| Not11 | DRSC04204 | 92.7 | 133 | inactive |
| ash2 | DRSC16902 | 211 | 206 | inactive |
| woc | DRSC15928 | 113 | 139 | inactive |
| CG14265 | DRSC18591 | 70.1 | 113 | inactive |
| CG3294 | DRSC00590 | 115 | 121 | inactive |
| Duba | DRSC10582 | 93.5 | 114 | inactive |
| Mkp + CG34140 | DRSC08585 | 143 | 110 | inactive |

Entries listed above called active:
| target | DRSC id | calcium signal, replicate 1 | calcium signal, replicate 2 | call |
| --- | --- | --- | --- | --- |
| CG31556 (retired record) | DRSC12122 | 9962 | 174 | active |
| Nup98-96 | DRSC14210 | 101 | 152 | active |
| CG3961 | DRSC10390 | 46.9 | 99.5 | active |
